{
  "source": "ChEMBL document CHEMBL1138041",
  "about": "“Parallel artificial membrane permeability assay: a new membrane for the fast prediction of passive human skin permeability” (J Med Chem, 2006)",
  "species_on_record": "Homo sapiens",
  "data": [
    {"smiles": "Oc1cccc(O)c1", "note": "[RESORCINOL]", "values": [
      {"measurement": "log Kp", "value": -7.18, "unit": "cm/s"}
    ]}
  ]
}
